According to PubChem BioAssay AID540275 (National Center for Advancing Translational Sciences (NCATS), 2011):
Hit rate of the full screen: of about 320,000 compounds, about 620 (0.19%) were called active. Inconclusive results, whose numbers are uncertain, are shown with a selection of clear calls. No stated cut-off is given here; in the data, active means activation above about 80%; inconclusive means between about 30% and that limit; inactive means weaker than that.

Chains of the proteins cited; added tags and fusions are not shown.
UniProt Q8NER1, whole entry, looked up: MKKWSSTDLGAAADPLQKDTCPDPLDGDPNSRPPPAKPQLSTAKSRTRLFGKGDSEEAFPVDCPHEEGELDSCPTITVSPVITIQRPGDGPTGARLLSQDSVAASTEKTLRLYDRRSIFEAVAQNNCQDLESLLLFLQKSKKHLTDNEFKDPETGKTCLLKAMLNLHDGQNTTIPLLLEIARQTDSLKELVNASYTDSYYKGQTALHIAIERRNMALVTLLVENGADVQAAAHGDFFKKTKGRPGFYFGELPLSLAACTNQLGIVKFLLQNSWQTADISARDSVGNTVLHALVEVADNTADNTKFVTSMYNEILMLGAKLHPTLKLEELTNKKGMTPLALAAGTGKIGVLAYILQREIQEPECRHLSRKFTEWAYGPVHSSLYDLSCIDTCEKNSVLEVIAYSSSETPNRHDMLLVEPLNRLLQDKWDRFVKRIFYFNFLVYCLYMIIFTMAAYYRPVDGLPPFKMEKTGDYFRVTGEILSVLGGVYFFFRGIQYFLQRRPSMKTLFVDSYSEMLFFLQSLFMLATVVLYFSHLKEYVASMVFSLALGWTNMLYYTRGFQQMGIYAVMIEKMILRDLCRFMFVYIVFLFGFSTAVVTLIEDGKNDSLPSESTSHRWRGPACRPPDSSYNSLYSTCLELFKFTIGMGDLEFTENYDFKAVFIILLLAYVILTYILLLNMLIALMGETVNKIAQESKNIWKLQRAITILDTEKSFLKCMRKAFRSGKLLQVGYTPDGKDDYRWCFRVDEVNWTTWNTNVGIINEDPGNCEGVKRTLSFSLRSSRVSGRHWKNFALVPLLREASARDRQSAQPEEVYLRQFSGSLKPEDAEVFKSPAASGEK

molecular target: Transient receptor potential cation channel subfamily V member 1 (Homo sapiens) (UniProt Q8NER1); assay: HTS Assay for Compounds that Act as Agonists of the Vanilloid Receptor 1; details: TRPV1-expressing cells, Fluo-8 calcium influx, agonist mode; at 8.33 µM, active compounds read high; further: 0% is about no effect
Outline: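 TRPV1-expressing cells were cultured overnight at 35.5C and loaded with Fluo-8 calcium dye for 40 to 90 min at room temperature. After a 10 s baseline, compound was added and calcium influx was read kinetically for 3 min (ex 480/em 520 nm).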

Row | Compound | activation
1 | Cc1nc(NC(=O)c2ccc3c(c2)OCCO3)ccc1Br | inconclusive: 42.6%
2 | COc1ccc(-n2nc(C(=O)NCC(=O)N3CCC(C)CC3)c3ccccc3c2=O)c(OC)c1 | inconclusive: 33.4%
3 | O=[N+]([O-])c1cc([N+](=O)[O-])c(Oc2ccc(F)cc2)cc1NN1CCCCC1 | inconclusive: 41.6%
4 | O=C(c1cc(-c2ccc(Cl)c(Cl)c2)on1)N1CCCC1 | inactive: 28.1%
5 | N#Cc1c(NC(=O)c2ccc(Cn3cc(Br)cn3)o2)sc2c1CCCCCC2 | inconclusive: 67.6%
6 | COc1cc2c(cc1OC)CN(C(=S)Nc1cccc(Cl)c1C)CC2 | inconclusive: 61%
7 | CCc1ccc(NC(=O)COC(=O)CCc2nc3cc(S(=O)(=O)N(CC)CC)ccc3n2C)cc1 | inactive: -2%
8 | O=C(NCCC1=CCCCC1)c1ccc(F)c(S(=O)(=O)N2CCOCC2)c1 | inconclusive: 59.3%
9 | CCN(CC(=O)N1CCOCC1)S(=O)(=O)c1ccc2ccccc2c1 | inconclusive: 32.9%
10 | O=c1c2ccccc2nc(SCc2cn3ccsc3n2)n1-c1ccccc1F | inconclusive: 53.9%
11 | Cc1ccc(C)c(SCC(=O)OCC(=O)NCc2ccccc2)c1 | inconclusive: 63.7%
12 | Cc1ccc2[nH]c(CNC(=O)C3CCCCC3)cc2c1 | inconclusive: 34.5%
13 | CC(C)COc1ccc(C(=O)Nc2ncn[nH]2)cc1 | inactive: -7.58%
14 | Cc1ccccc1S(=O)(=O)Cc1ccc(C(=O)N2CCN(c3cccc(C)c3C)CC2)o1 | inactive: 0.397%
15 | Cc1occc1C(=O)NC(C)C12CC3CC(CC(C3)C1)C2 (stereo not given) | inactive: 22.8%
16 | CN(C)C(=O)C1C2NC(=S)N(c3ccc(Cl)cc3)C1(C)Oc1ccc(Cl)cc12 (stereo not given) | inactive: 28.3%
17 | CC(=O)OC1C(N2CCCCC2)c2c(ccc(/C=C/C(=O)N3CCCCC3)c2O)OC1(C)C (stereo not given) | active: 80.6%
18 | COc1ccc(C(=O)Nc2ccc3ncccc3c2)cc1 | active: 90.7%
19 | O=C(Nc1nc(-c2ccccn2)cs1)C1CC1 | inactive: 23.7%
20 | Cc1cccc(C(=O)OCc2cnc(Cl)s2)c1 | inconclusive: 30%
21 | CC(C(=O)Nc1ccc2c(c1)OCCO2)N1Cc2ccccc2C1=O (stereo not given) | inactive: -1.99%
22 | CC1CCN(Cc2nnnn2-c2ccc(Cl)cc2)CC1 | inconclusive: 35.4%
23 | Cc1occc1C(=O)Nc1cc(S(=O)(=O)N2CCOCC2)ccc1OC(C)C | inconclusive: 37.7%

Row | Compound | activation
24 | COc1cc(C(=O)OCC(=O)Nc2nnc(-c3ccccc3)o2)cc(OC)c1OC | inactive: 2.07%
25 | O=C(CCSc1ccccc1)NCCSCc1ccccc1 | inconclusive: 49.8%
26 | Cc1cccnc1NC(=O)Nc1cccc2ccccc12 | inactive: -2.42%
27 | CC1(C)Oc2ccc(NC(=O)c3ccco3)cc2O1 | inconclusive: 59.1%
28 | CCCCC(=O)Nc1nnc(C)s1 | inactive: -0.0625%
29 | O=C(Cc1ccc(Cl)cc1)Nc1ccc(S(=O)(=O)N2CCOCC2)cc1 | inconclusive: 39.5%
30 | CC(C)(C)NC(=O)c1ccc(Sc2ccccc2)c([N+](=O)[O-])c1 | inconclusive: 37.5%
31 | COc1ccc(-n2c(SCC(=O)Nc3nccs3)nc3sc4c(c3c2=O)CCN(C)C4)cc1 | inactive: 0.941%
32 | COc1ccccc1N(CC(=O)NC1CC2CCC1C2)S(=O)(=O)c1ccc(C)cc1 (stereo not given) | inconclusive: 40%
33 | CCOC(=O)C1(CCCc2ccccc2)CCN(C(=O)c2cnc(C)cn2)CC1 | inconclusive: 44.7%
34 | CC(C)N1C(=O)NC2(c3ccccc3)N(C)C(=O)N(C)C12c1ccccc1 (stereo not given) | inconclusive: 45.2%
35 | O=C(N/N=C/c1ccc(OC2CSC2)cc1)c1ccccc1 | inconclusive: 39.9%
36 | CCOc1ccccc1-n1c(SC(C)C(=O)NCC2CCCO2)nc2ccccc2c1=O (stereo not given) | inconclusive: 30.4%
37 | CC(=O)c1ccc(NC(=O)c2ccc(S(=O)(=O)c3ccccc3)cc2)cc1 | inconclusive: 35.6%
38 | O=C(c1ccc2c(c1)OCO2)N1CCC(Cc2ccccc2)CC1 | inconclusive: 60.2%
39 | COC(=O)c1c(-c2ccc(C)cc2)csc1NC(=O)Cc1ccc(OC)c(OC)c1 | inconclusive: 36.6%
40 | Cn1cccc/c1=N\c1cccc[n+]1C | inactive: -0.43%
41 | CCN1CCc2c(OCc3ccccc3)cccc2C1=O | inconclusive: 40.4%
42 | O=C(OCC(=O)N(c1ccccc1)C1CCCCC1)c1ccc(CO)cc1 | inconclusive: 61.6%
43 | CCOC(=O)c1cc(Sc2ccccc2N)cc(C(=O)OCC)n1 | inconclusive: 76.1%
44 | COc1ccc(-c2cc(C(F)(F)F)nc(SCC(=O)N(C)Cc3cn(C)nc3C)n2)cc1OC | inconclusive: 41.2%
45 | Cc1ccc2nc(-c3cccc(Br)c3)cc(C(=O)NCC3CCCO3)c2c1 (stereo not given) | inconclusive: 65.3%

Two records picked at random from those above, as already listed:
Row | Compound | activation
35 | O=C(N/N=C/c1ccc(OC2CSC2)cc1)c1ccccc1 | inconclusive: 39.9%
26 | Cc1cccnc1NC(=O)Nc1cccc2ccccc12 | inactive: -2.42%
